For eleven substances, step yield results are on record in US5478809A (Takeda Chemical Industries, Ltd., priority 1992, dated 1995).

The nature of the data set: general procedure: solution-phase peptide synthesis; DEPC/triethylamine; HONB/DCC; HONB/DIC; HOBT/DIC.
Where [1] appears, read: late stage modification step, hydrochloride.

Take “(2R,6R)-2-Myr-amino-6,7-bis(PamO)-4-THT-Glu(O^t Bu)-Gly-D-Glu(O^t Bu)-O^t Bu”: under “coupling step”, the step yield result is given as “yield 93%”.

Under “lipidation step”, “(2R,6R)-N^δ -(2-Pam-amino-6,7-bis(PamO)-4-THT)-N^α -Boc-Orn-Gly-Gly-Glu(O^t Bu)-O^t Bu” came in with a step yield of 65%. Substance “(2R,6R)-N^δ -(2-Pam-amino-6,7-bis(PamO)-4-THT)-Orn-Gly-Gly-Glu-OH hydrochloride” displayed a step yield under setting [1] of 96%. In the case of “(2R,6S)-2-Myr-amino-6,7-bis(PamO)-4-THT-Gly-Gly-Gly-Glu(O^t Bu)-Thr(^t Bu)-Thr(^t Bu)-O^t Bu”, the step yield entry (lipidation step) is on record as “yield 89%”. In the case of “(2R,6S)-2-Myr-amino-6,7-bis(PamO)-4-THT-Gly-Gly-Gly-Glu-Thr-Thr-OH”, the step yield result (late stage modification step) was “yield 99%”.

With “Fmoc-Dhc(Pam)2 -Gly-Gly-Gly-Glu(O^t Bu)-Thr(^t Bu)-Thr(^t Bu)-O^t Bu”, under “coupling step”, the step yield is recorded as 97%. The substance “H-Dhc(Pam)2 -Gly-Gly-Gly-Glu(O^t Bu)-Thr(^t Bu)-Thr(^t Bu)-O^t Bu” returned a step yield (late stage modification step) of 90%. Take “N^α -Boc-Orn-Gly-Gly-Glu(O^t Bu)-O^t Bu hydrochloride”: under setting [1], the step yield was 86%.

For the setting “coupling step”, “N^δ -Z--N^α -Boc-Orn-Gly-Gly-Glu(O^t Bu)-O^t Bu” displayed a step yield of 100%. In the case of “Pam-Dhc(Pam)2 -Gly-Gly-Gly-Glu(O^t Bu)-Thr(^t Bu)-Thr(^t Bu)-O^t Bu”, the step yield (lipidation step) was determined as 70%.

In turn, “Pam-Dhc(Pam)2 -Gly-Gly-Gly-Glu-Thr-Thr-OH” yielded a step yield (late stage modification step) of 98%.
